# Values from PubChem BioAssay AID1224830 (NIAID, 2016)
# Aim: 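Host factors that control LPS-induced TNF expression in human macrophages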 (primary screen)
# System: human THP-1 monocytic leukaemia cells, TNF dual-luciferase reporter clone, PMA-differentiated to macrophage-like cells
# Reagents: siRNA pool against human genes, 50 nM
# Duration: LPS for 4 h, given about 3 days after siRNA transfection
# Treatment: bacterial LPS (TLR4 ligand), 10 ng/ml
# Detection: 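Ratio of firefly to renilla light, scaled to the plate median and expressed as a robust z-score per replicate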
# Direction: TNF reporter robust z-score: higher = stronger TNF reporter response to LPS
# Hit rule: 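Each well counts as active if its z-score is over 2.8 or under -1.5; controls are left without a call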
# Here is an unselected part of about 18,000 reagents tested. In the full data, about 2,900 (16%) got an active call. 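Calls are made per well; low scores hint the gene aids the LPS response, high scores that it dampens it.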 Repeated entries: four replicate wells of each siRNA pool.
Gene,TNF reporter robust z-score,call
C17orf78,-0.54,inactive
C17orf78,-1.19,inactive
C17orf78,-0.79,inactive
C17orf78,-1.26,inactive
MATCAP2,-0.94,inactive
MATCAP2,-1.34,inactive
MATCAP2,-1.62,active
MATCAP2,-1.06,inactive
CLECL1,-0.58,inactive
CLECL1,-1.14,inactive
CLECL1,-0.88,inactive
CLECL1,-0.29,inactive
GSDMB,0.3,inactive
GSDMB,0.81,inactive
GSDMB,1.32,inactive
GSDMB,1.18,inactive
OR2M5,-0.59,inactive
OR2M5,-0.54,inactive
OR2M5,2.57,inactive
OR2M5,-0.47,inactive
FOXN2,-1.29,inactive
FOXN2,-0.55,inactive
FOXN2,-0.69,inactive
FOXN2,-0.87,inactive
PLAC4,-0.96,inactive
PLAC4,-1.04,inactive
PLAC4,-0.89,inactive
CHRAC1,-0.82,inactive
CHRAC1,1.25,inactive
CHRAC1,-0.93,inactive
CHRAC1,0.05,inactive
PAPLN,-0.21,inactive
PAPLN,0.35,inactive
PAPLN,-0.59,inactive
PAPLN,0.79,inactive
ARL10,2.5,inactive
ARL10,1.37,inactive
ARL10,0.32,inactive
ARL10,-0.07,inactive
ATP10D,2.31,inactive
ATP10D,1.65,inactive
ATP10D,0.53,inactive
ATP10D,1.82,inactive
GPR139,-0.7,inactive
GPR139,-0.95,inactive
GPR139,-0.64,inactive
GPR139,-0.47,inactive
MAGEA12,3.39,active
MAGEA12,3.33,active
MAGEA12,1.03,inactive
MAGEA12,5.45,active
SEPTIN9,-1.02,inactive
SEPTIN9,0.75,inactive
SEPTIN9,0.5,inactive
SEPTIN9,0.31,inactive
KMO,-0.67,inactive
KMO,-0.4,inactive
KMO,0.16,inactive
KMO,0.87,inactive
CFAP184,-0.39,inactive
CFAP184,0,inactive
CFAP184,0.05,inactive
CFAP184,-0.34,inactive
HOXB3,3.48,active
HOXB3,0.87,inactive
HOXB3,1.96,inactive
HOXB3,1.89,inactive
MMD,-1.58,active
MMD,1.12,inactive
MMD,0.48,inactive
MMD,0,inactive
NECTIN3,0.59,inactive
NECTIN3,-0.45,inactive
NECTIN3,0.08,inactive
NECTIN3,0.53,inactive
S100A16,-0.94,inactive
S100A16,-0.09,inactive
S100A16,-0.6,inactive
S100A16,-0.3,inactive
FBXO31,-2.23,active
FBXO31,-1.09,inactive
FBXO31,-1.39,inactive
FBXO31,-0.97,inactive
SAMD13,0.15,inactive
SAMD13,0.13,inactive
SAMD13,0.5,inactive
SAMD13,0.94,inactive
TAS2R45,-0.52,inactive
TAS2R45,-0.37,inactive
TAS2R45,-0.89,inactive
PPFIA3,0.65,inactive
PPFIA3,2.27,inactive
PPFIA3,0.7,inactive
PPFIA3,0.22,inactive
MMAA,1.46,inactive
MMAA,0.27,inactive
MMAA,0.89,inactive
MMAA,0.63,inactive
DTWD2,0.08,inactive
DTWD2,0.41,inactive
DTWD2,0.73,inactive
DTWD2,0.84,inactive
PHOX2B,2.75,inactive
PHOX2B,5.19,active
PHOX2B,1.52,inactive
PHOX2B,3.42,active
IGFALS,-0.13,inactive
IGFALS,0.4,inactive
IGFALS,0.35,inactive
IGFALS,0.85,inactive

Called active, of those listed so far:
Gene,TNF reporter robust z-score,call
MATCAP2,-1.62,active
MAGEA12,3.39,active
MAGEA12,3.33,active
MAGEA12,5.45,active
HOXB3,3.48,active
MMD,-1.58,active
FBXO31,-2.23,active
PHOX2B,5.19,active
PHOX2B,3.42,active
